PubChem BioAssay AID652243, Drosophila RNAi Screening Center, 2013

Purpose: 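Fly genes required for human androgen receptor driven transcription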 (primary screen)
System: Drosophila S2R+ cells
Reagents: long dsRNA against Drosophila genes
Timing: 72 h (48 h, then 24 h hormone)
Treatment: synthetic androgen R1881 at 10 nM for 24 h
Measurement: 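Firefly light from an androgen-responsive reporter and Renilla control light per well, raw and unnormalised, for each of two replicates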
Reading the numbers: firefly reporter light: higher = more light from androgen-responsive reporter; Renilla control light: higher = more constitutive control signal (cell number, transfection)
Call rule: 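Across duplicate plates, a knock-down whose log firefly/Renilla ratio shifted a set fold down or up from the GFP/LacZ control mean was a hit; the downward cut appears as both 1.5 and 3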
Meaning of the calls: active = hit: reporter lowered or raised; inactive = no hit
In all, the deposit lists about 24,000 reagents; shown is a random part of those with a known target gene and a result. In the full data, 246 (1%) got an active call. 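Plates not normalised; calls are printed but the firefly/Renilla ratio behind them is not deposited; fold cut for lowering reported inconsistently.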 The raw values are shown without normalisation. The numbers tell different reagents against one gene apart. Names joined by + are all predicted targets of the reagent. Not stated in the record: the amount of reagent.

gene knocked down	dsRNA no.	firefly reporter light, replicate 1	firefly reporter light, replicate 2	Renilla control light, replicate 1	Renilla control light, replicate 2	Outcome
Daao1	1	2.46e5	1.41e5	1.34e6	7.20e5	inactive
dsf	1	69951	47085	5.34e5	6.12e5	inactive
dsf	2	4.42e5	3.72e5	4.16e5	4.19e5	inactive
Octbeta1R	1	2.36e5	3.20e5	2.93e6	4.04e6	inactive
Octbeta1R	2	5.49e5	4.89e5	1.32e6	1.65e6	inactive
seq	1	5.25e5	4.58e5	1.30e6	1.49e6	inactive
CG13607	1	2.70e5	3.05e5	3.11e6	2.90e6	inactive
CG14450	1	2.56e5	2.43e5	1.07e6	1.35e6	inactive
CG14450	2	6.26e5	5.47e5	9.18e5	9.18e5	inactive
CR43999 (retired record)	1	2.19e5	2.42e5	3.18e6	3.27e6	inactive
Gs2	1	3.77e5	3.97e5	4.46e6	4.84e6	inactive
Gs2	2	3.17e5	3.06e5	5.06e5	3.88e5	inactive
CG31898	1	2.32e5	1.82e5	4.08e5	4.31e5	inactive
MtnD	1	6.49e5	7.75e5	1.02e6	1.27e6	inactive
TP53INP	1	1.75e5	1.79e5	2.22e6	1.93e6	inactive
TP53INP	2	1.05e6	8.93e5	1.11e6	9.40e5	inactive
TP53INP	3	8.65e5	1.25e6	8.95e5	1.13e6	inactive
CG12935 + Nop10	1	3.87e5	3.78e5	2.18e6	1.91e6	inactive
lft	1	1.25e5	2.13e5	9.44e5	1.79e6	inactive
vari	1	95302	1.16e5	1.06e6	1.18e6	inactive
vari	2					inactive
gek	1	6.82e5	6.37e5	1.28e6	1.10e6	inactive
gek	2					inactive
gek	3					inactive
ImpL2	1	1.20e6	4.49e5	1.47e6	6.08e5	inactive
ImpL2	2	4.01e5	5.46e5	1.82e6	1.63e6	inactive
CG32260	1	1.40e5	2.02e5	4.14e5	4.09e5	inactive
CG32260	2	7.67e5	8.45e5	9.05e5	9.71e5	inactive
HERC2	1	2.04e5	1.38e5	9.84e5	4.87e5	inactive
Ptpmeg	1	9.19e5	1.01e6	1.09e6	1.27e6	inactive
Ptpmeg	2	3.89e5	4.48e5	7.70e5	6.96e5	inactive
Ptpmeg	3					inactive
Ptpmeg	4					inactive
Git	1	1.48e6	1.21e6	1.70e6	1.72e6	inactive
Git	2	5.21e5	5.35e5	8.89e5	1.22e6	inactive
Unc-115b + p24-2 + Unc-115a	1	1.63e5	1.28e5	2.01e6	2.27e6	inactive
Fbl6	1	5.32e5	5.66e5	6.30e5	7.79e5	inactive
Fbl6	2	9.23e5	8.67e5	1.74e6	1.26e6	inactive
Osi12	1	1.17e5	96811	1.87e6	1.91e6	inactive
CG5966	1	64733	1.14e5	7.01e5	5.99e5	inactive
He	1	7.51e5	7.79e5	8.96e5	1.03e6	inactive
Nplp3	1	3.44e5	2.52e5	4.48e5	4.35e5	inactive
kuz	1	1.61e5	1.55e5	1.46e6	1.66e6	inactive
CG5612	1	2.41e5	1.93e5	2.34e6	2.63e6	inactive
Scp2	1	2.16e5	2.45e5	4.20e5	4.14e5	inactive
Scp2	2	1.57e5	1.33e5	2.45e6	1.73e6	inactive
kipf	1	4.27e5	3.62e5	2.17e6	1.89e6	inactive
kipf	2	7.84e5	9.82e5	2.93e5	2.98e5	inactive
kipf	3	1.01e6	7.80e5	2.42e6	1.78e6	inactive
CG10195	1	1.58e5	1.79e5	2.00e6	1.71e6	inactive
bin	1	1.02e5	84999	1.00e6	1.21e6	inactive
bin	2	5.07e5	3.97e5	1.04e6	1.09e6	inactive
Ih	1	2.25e5	2.27e5	7.08e5	6.47e5	inactive
Ih	2	8.58e5	9.65e5	2.86e6	2.31e6	inactive
Ih	3	7.26e5	8.13e5	8.58e5	9.89e5	inactive
Ih	4	5.14e5	4.76e5	4.68e5	4.79e5	inactive
Ih	5	1.95e5	3.36e5	7.44e5	5.89e5	inactive
Ih	6	2.82e5	4.92e5	8.24e5	1.35e6	inactive
Ih	7	5.31e5	4.33e5	1.34e6	1.16e6	inactive
